According to the supplement of paper PMC9135407:
Where “and” joins values, the source holds several entries; their conditions need not be identical. Equal entries are not always repeated. Structures can show the parent of a compound that is named as a salt. ± gives the standard deviation of the averaged measurements. The list shows a part of the results. Part of the spread comes from offsets between plates or batches.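 Primary human stellate myofibroblasts activated in culture; inactivation shown by regained lipid droplets. Readout: fraction of Hoechst-counted cells exceeding a per-plate Bodipy threshold, duplicate wells, each plate with DMSO negative and nortriptyline positive controls. Hits: control-normalized score beyond the plate's top-tenth-percentile nortriptyline wells, or among its three best wells. Final well concentrations unstated.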

Test system: primary human hepatic stellate cells (donor 1)
Assay: percent Bodipy-positive cells; higher = more lipid droplet accumulation
Conditions: 48 h
[1] = library stock concentration: 10 mM
[2] = library stock concentration: 1 mM
[3] = library stock concentration: 3.33 mM
[4] = library stock concentration: 80 uM
[5] = library stock concentration: 400 uM
[6] = library stock concentration: 2 mM

## CCn1nc(C(=O)O)c(=O)c2cc3c(cc21)OCO3 [Cinoxacin]
  percent Bodipy-positive cells: 9.97 ± 0.55%
Library stock concentration: 7.6 mM
  percent Bodipy-positive cells: 2.67 ± 1.5%
[1]
  percent Bodipy-positive cells: 14.8% and 35.7%

## CCCCN1CCC(CCC(=O)c2cc(Cl)c(N)cc2OC)CC1
[1]
  percent Bodipy-positive cells: 36.8 ± 1.3%

## Cc1cc(/C=C/c2ccc3cc(N(C)C)ccc3[n+]2C)c(C)n1-c1ccccc1 [Pyrvinium pamoate]
  percent Bodipy-positive cells: 14.7 ± 5%
Library stock concentration: 2.6 mM
  percent Bodipy-positive cells: 59.85 ± 0.29%
[1]
  percent Bodipy-positive cells: 79.9 ± 3%

## CCCC[C@H](CCC(=O)O)NC(=O)CCCCCCc1ccccc1
[2]
  percent Bodipy-positive cells: 14.2 ± 1.1%

## CNC(=O)c1cc2c(cn1)[nH]c1ccccc12
[1]
  percent Bodipy-positive cells: 9.91 ± 1%

## CNC(=O)c1cc2c(cn1)[nH]c1ccccc12 [N-Methyl-beta-carboline-3-carboxamide]
[1]
  percent Bodipy-positive cells: 63.2 ± 4.2%

## Cc1cc(=O)oc2cc(O)ccc12 [Hymecromone]
  percent Bodipy-positive cells: 9.89 ± 0.27%

## Cc1cc(=O)oc2cc(O)ccc12 [4-Methylumbelliferone (4-MU)]
[3]
  percent Bodipy-positive cells: 9.39 ± 1.1%
[1]
  percent Bodipy-positive cells: 16.5 ± 4.3%

## Cc1cc(=O)oc2cc(O)ccc12
[1]
  percent Bodipy-positive cells: 31 ± 9.1%

## CC(C)C[C@H](NC(=O)[C@@H](COC(C)(C)C)NC(=O)[C@H](Cc1ccc(O)cc1)NC(=O)[C@H](CO)NC(=O)[C@H](Cc1c[nH]c2ccccc12)NC(=O)[C@H](Cc1cnc[nH]1)NC(=O)[C@@H]1CCC(=O)N1)C(=O)N[C@@H](CCCNC(=N)N)C(=O)N1CCC[C@H]1C(=O)NNC(N)=O [Goserelin acetate]
Library stock concentration: 1.6 mM
  percent Bodipy-positive cells: 7.83 ± 2.6%

## CC(C)C[C@H](NC(=O)[C@@H](COC(C)(C)C)NC(=O)[C@H](Cc1ccc(O)cc1)NC(=O)[C@H](CO)NC(=O)[C@H](Cc1c[nH]c2ccccc12)NC(=O)[C@H](Cc1cnc[nH]1)NC(=O)[C@@H]1CCC(=O)N1)C(=O)N[C@@H](CCCNC(=N)N)C(=O)N1CCC[C@H]1C(=O)NNC(N)=O
Library stock concentration: 9.6 mM
  percent Bodipy-positive cells: 15.2 ± 2.8%

## CCCCCOc1ccccc1C(O)CC#CCCCC(=O)OC (configuration not stated)
[2]
  percent Bodipy-positive cells: 6.31 ± 1.6%

## OCCCNc1cc(-c2ccnc(Nc3cccc(Cl)c3)n2)ccn1
[4]
  percent Bodipy-positive cells: 37.7 ± 1.5%
[5]
  percent Bodipy-positive cells: 51.5 ± 4.8%
[6]
  percent Bodipy-positive cells: 61.8 ± 2.5%

## CSc1nc(NC2CCCC2)c([N+](=O)[O-])c(NC2CCCC2)n1
[1]
  percent Bodipy-positive cells: 8.42 ± 2.8%

## CCOC(=O)c1ccc(OC(=O)CCCCCNC(=N)N)cc1 [Gabexate mesilate]
  percent Bodipy-positive cells: 10.4 ± 3.2%

## CCOC(=O)c1ccc(OC(=O)CCCCCNC(=N)N)cc1
[1]
  percent Bodipy-positive cells: 10.5 ± 3.5%

## CCOC(=O)c1ccc(OC(=O)CCCCCNC(=N)N)cc1 [Gabexate mesylate]
[1]
  percent Bodipy-positive cells: 8.51 ± 2.6%

## OC[C@H]1O[C@H]([S-])[C@H](O)[C@@H](O)[C@@H]1O.[Au+] [Aurothioglucose]
Library stock concentration: 5.1 mM
  percent Bodipy-positive cells: 35.6 ± 10%
[1]
  percent Bodipy-positive cells: 100%

## CC(C)(C)Cn1c(N)nc2ccc(-c3[nH]c(C(C)(C)C)nc3-c3ccc(F)cc3)nc21 [Ralimetinib]
[4]
  percent Bodipy-positive cells: 12.7 ± 0.3%
[5]
  percent Bodipy-positive cells: 17.4 ± 2%
[6]
  percent Bodipy-positive cells: 17 ± 2.2%
[1]
  percent Bodipy-positive cells: 69.6 ± 13%

## CC(C)(C)Cn1c(N)nc2ccc(-c3[nH]c(C(C)(C)C)nc3-c3ccc(F)cc3)nc21
[3]
  percent Bodipy-positive cells: 18.4 ± 9.7%
[1]
  percent Bodipy-positive cells: 57 ± 2.3%

## CCCN[C@H]1CCc2nc(N)sc2C1 [Pramipexole]
[3]
  percent Bodipy-positive cells: 22 ± 5.3%
Library stock concentration: 9.5 mM
  percent Bodipy-positive cells: 11.4 ± 0.12%
[1]
  percent Bodipy-positive cells: 10.4% and 8.78%

## CCCN[C@H]1CCc2nc(N)sc2C1
[1]
  percent Bodipy-positive cells: 10.6% and 20.2%

## O=C(NC1CCN(CCCCC2(C(=O)NCC(F)(F)F)c3ccccc3-c3ccccc32)CC1)c1ccccc1-c1ccc(C(F)(F)F)cc1 [Lomitapide]
[1]
  percent Bodipy-positive cells: 98.8 ± 1.8%

## CCC(=O)N1CCN(C(=O)c2ccccc2)CC1
[1]
  percent Bodipy-positive cells: 26.4 ± 11%

## CC(=O)c1ccc(S(=O)(=O)NC(=O)NC2CCCCC2)cc1 [Acetohexamide]
  percent Bodipy-positive cells: 21.9 ± 1.3%
Library stock concentration: 6.2 mM
  percent Bodipy-positive cells: 17 ± 14%
[1]
  percent Bodipy-positive cells: 31.8 ± 3.2%

## Cc1c(-c2ccnn2C)cc(C(=O)NCc2ccc(S(C)(=O)=O)cn2)c(=O)n1-c1cccc(C(F)(F)F)c1 [Alvelestat (AZD9668)]
[3]
  percent Bodipy-positive cells: 17.5 ± 6%
[1]
  percent Bodipy-positive cells: 18.6 ± 2.7%

## CCCCC[C@H](O)/C=C/[C@@H]1[C@@H](C/C=C\CCCC(=O)O)[C@@H](O)C[C@H]1O [Prostaglandin F2.alpha.]
[2]
  percent Bodipy-positive cells: 13.1 ± 0.15%

## CCCCC[C@H](O)/C=C/[C@@H]1[C@@H](C/C=C\CCCC(=O)O)[C@@H](O)C[C@H]1O [Dinoprost trometamol]
  percent Bodipy-positive cells: 21 ± 6%

## CCCCC[C@H](O)/C=C/[C@@H]1[C@@H](C/C=C\CCCC(=O)O)[C@@H](O)C[C@H]1O [Prostaglandin F2.alpha. (tromethamine salt)]
[2]
  percent Bodipy-positive cells: 10.1 ± 0.6%

## CCCCC[C@H](O)/C=C/[C@@H]1[C@@H](C/C=C\CCCC(=O)O)[C@@H](O)C[C@H]1O [Prostaglandin F2a]
[2]
  percent Bodipy-positive cells: 10.9 ± 9.6%

## CCSC(=N)N [S-Ethylisothiourea hydrobromide]
[1]
  percent Bodipy-positive cells: 68.7 ± 17%

## CCSC(=N)N [EIT hydrobromide]
[1]
  percent Bodipy-positive cells: 6.23 ± 3.6%

## CCSC(=N)N [S-ethyl Isothiourea (hydrobromide)]
[2]
  percent Bodipy-positive cells: 7.33 ± 0.89%

## O=C(O)CCC/C=C\C[C@@H]1[C@@H](/C=C/[C@@H](O)C2CCCCC2)[C@H](O)C[C@@H]1O [15-cyclohexyl pentanor Prostaglandin F2.alpha.]
[2]
  percent Bodipy-positive cells: 13.8 ± 1.2%

## CCCCCCCC/C=C/CCCCCCCC(=O)Nc1c(C(C)C)cccc1C(C)C [Oleic Acid-2,6-diisopropylanilide]
[2]
  percent Bodipy-positive cells: 14.7 ± 5.4%

## CC(=O)Nc1cccc2c1c(Sc1ccc(Cl)cc1)c(C)n2CC(=O)O
[3]
  percent Bodipy-positive cells: 31.8 ± 2.5%
[1]
  percent Bodipy-positive cells: 22.4 ± 1.2%

## CNc1ncnc2c1ncn2[C@H]1C[C@H](OP(=O)(O)O)[C@@H](COP(=O)(O)O)O1
[1]
  percent Bodipy-positive cells: 23 ± 6.7%

## CC(COc1ccccc1)N(CCCl)Cc1ccccc1 (configuration not stated) [Phenoxybenzamine HCl]
[3]
  percent Bodipy-positive cells: 11.2 ± 2.2%
Library stock concentration: 6.6 mM
  percent Bodipy-positive cells: 12.7 ± 2.4%
[1]
  percent Bodipy-positive cells: 26.7 ± 2.1%

## CC(COc1ccccc1)N(CCCl)Cc1ccccc1 (configuration not stated) [Phenoxybenzamine hydrochloride]
  percent Bodipy-positive cells: 15.9 ± 2.4%
Library stock concentration: 5.9 mM
  percent Bodipy-positive cells: 17.5 ± 8.5%

## CC(COc1ccccc1)N(CCCl)Cc1ccccc1 (configuration not stated) [Dibenzyline]
[1]
  percent Bodipy-positive cells: 62.3 ± 12%

## CC(COc1ccccc1)N(CCCl)Cc1ccccc1 (configuration not stated) [Phenoxybenzamine]
Library stock concentration: 16.5 mM
  percent Bodipy-positive cells: 20 ± 7.8%

## Nc1ncn([C@@H]2O[C@H](CO)[C@@H](O)[C@H]2O)c(=O)n1 [5-azacytidine]
[1]
  percent Bodipy-positive cells: 45 ± 7.8%

## Nc1ncn([C@@H]2O[C@H](CO)[C@@H](O)[C@H]2O)c(=O)n1 [Azacitidine]
[4]
  percent Bodipy-positive cells: 46.6 ± 7.6%
[5]
  percent Bodipy-positive cells: 48.7 ± 4%
[6]
  percent Bodipy-positive cells: 44.7 ± 5.5%
[3]
  percent Bodipy-positive cells: 12.1 ± 1.8%

## Nc1ncn([C@@H]2O[C@H](CO)[C@@H](O)[C@H]2O)c(=O)n1 [5-Azacytidine]
[1]
  percent Bodipy-positive cells: 45 ± 0.76%

## CCCNC(C)C(=O)Nc1ccccc1C (configuration not stated) [Prilocaine hydrochloride]
  percent Bodipy-positive cells: 35.2 ± 12%
Library stock concentration: 7.8 mM
  percent Bodipy-positive cells: 12.2 ± 2.5%

## CCCNC(C)C(=O)Nc1ccccc1C (configuration not stated) [Prilocaine]
[3]
  percent Bodipy-positive cells: 4.18 ± 1.5%
[1]
  percent Bodipy-positive cells: 11.1 ± 2.8%
